The text below walks through data of PubChem BioAssay AID2685 (National Center for Advancing Translational Sciences (NCATS), 2010).

The assay in a line: qHTS Assay for Lipid Storage Modulators in Drosophila S3 Cells.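 As to cell number change: cells counted by Cell Tracker Red CMTPX staining in the red channel.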 The note with it: BODIPY lipid droplet fluorescence, 18-24 h; for cell number change: measured here: cell count max response, cells fed with added oleic acid. An outline of the steps:
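Drosophila S3 cells loaded with oleic acid (400 uM, as added) and compounds at several concentrations; lipid droplets imaged by 488-nm laser-scanning cytometry, 500–530 nm intensity and object ratio to cell channel. Percent activity normalized to 20 uM Triacsin C.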
For orientation: In qHTS, concentration-response curves come from the screen itself.

Setting [1] is: measured here: cell number channel AC50, cells fed with added oleic acid.
Setting [2] is: measured here: lipid fluorescence (Fed channel) AC50, cells fed with added oleic acid.

This is one part of the list. These are further read-outs of the screen, such as a control signal, another cell line or another target. No call is given for them. The list favours compounds with an active or inconclusive main result. Potencies come from curve fits of mixed quality, noted in brackets.

By AC50 is commonly meant the concentration at which the activity in the assay is half-maximal. Regarding `Brc1ccc(/C=N/c2nc3ccccc3n2CCN2CCOCC2)cc1`, the cell number change is -16.5%. Moreover, under setting [1], the AC50 was 2.31 µM [falling, single point]. The AC50 under setting [2] is 0.731 µM [falling, full curve].
With `CC(=O)Oc1ccc(N2C(=O)C3C(C2=O)C2(C)C=CC3(C)O2)cc1` (configuration not stated), the cell number change was -34.8%. In addition, the AC50 under setting [1] is 0.651 µM [falling, full curve]. Also, under setting [2], the AC50 is 0.92 µM [falling, full curve].
Consider `N#C/C(=C\c1c[nH]c2ccccc12)C(=O)NC1CCCC1`, for which the cell number change was -22.6%. The AC50 under setting [2] was 29.1 µM [falling, single point].
Regarding `COc1ccc(Nc2nc(NCCO)nc(OC)n2)cc1`, the concentration at half-maximal activity (AC50) under setting [2] was 0.651 µM [rising, single point].
Regarding `Cc1ccc(S(=O)(=O)NC(C)C(=O)Nc2cccc([N+](=O)[O-])c2)cc1` (configuration not stated), the cell number change turned out to be 34%.
Regarding `COc1ccc2c(c1)c1nnc(SCC(=O)NC3CC3)nc1n2C`, the AC50 under setting [2] is 18.4 µM [falling, single point].
Consider `O=C(CCCc1ccccc1)NCCN1CCOCC1`, for which the cell number change stood at 10.4%. Also, the half-maximal activity concentration (AC50) under setting [2] was 0.184 µM [falling, full curve].
On to `O=C1c2ccccc2C(=O)N1CC(=O)N1c2ccccc2Sc2ccc(C(F)(F)F)cc21`, for which the cell number change is 4.02%. Besides, the concentration at half-maximal activity (AC50) under setting [2] was 0.00411 µM [falling, full curve, poor fit].
Consider `OCCN1CCN(c2ncnc3sc(-c4ccccc4)cc23)CC1`, for which the cell number change is -10%.
Consider `CC(=O)n1nc(-c2cccnc2)nc1N`, for which the cell number change amounted to 12.2%. Also, the concentration at half-maximal activity (AC50) under setting [2] is 0.92 µM [rising, full curve].
As for `CCc1ccc2c(c1)c1nc(C)sc1n2CC(=O)OC`, the cell number change was 42.6%. In addition, the AC50 under setting [1] is 10.3 µM [rising, single point]. The AC50 under setting [2] is 20.6 µM [rising, partial curve].
Consider `CC1CCCN(C(=O)c2nn(C)c3c2CS(=O)(=O)c2ccccc2-3)C1` (configuration not stated), for which, under setting [2], the half-maximal activity concentration (AC50) was 6.51 µM [rising, single point].
As for `O=C(NCc1cccs1)C1CC(c2ccc(Cl)cc2)=NO1` (configuration not stated), the cell number change was found to be 29.4%. Moreover, the AC50 under setting [2] is 16.4 µM [rising, partial curve, poor fit].
Regarding `CC(C)Oc1cccc(C(=O)C2CCCN(C(=O)c3ccsc3)C2)c1` (configuration not stated), the half-maximal activity concentration (AC50) under setting [2] was 29.1 µM [falling, single point].
For the compound `O=C(NCC1OCCc2ccccc21)c1ccc(NC(=O)c2ccc(Cl)cc2Cl)cc1` (configuration not stated), the cell number change was -17.9%. For the same compound, under setting [2], the concentration at half-maximal activity (AC50) was 14.6 µM [falling, single point].
As for `Nc1c2c(nn1-c1ccccc1)CCC2`, the cell number change is -9.21%. Besides, under setting [2], the AC50 was 0.1 µM [falling, full curve, poor fit].
Consider `O=C1Oc2ccccc2C(=O)/C1=C\N1CCN(c2ccccc2)CC1`, for which the cell number change was -12.3%.
With `Cc1ccc(-n2nnnc2SCC(=O)Nc2ccccc2-c2ccccc2)cc1C`, the cell number change was -5.08%. Also, under setting [2], the AC50 is 29.1 µM [rising, single point].
Turning to `O=C(CCc1ccccc1)N1CCN(CCO)CC1`, the cell number change was -3.54%.
Consider `Cc1scc(C(=O)N2CCN(c3ccc(Cl)cc3)CC2)c1C`, for which the cell number change was -19.4%. Also, under setting [1], the AC50 was 0.00461 µM [falling, full curve, poor fit]. Moreover, the half-maximal activity concentration (AC50) under setting [2] is 0.00461 µM [falling, full curve, poor fit].
For the compound `CC(C)c1ccc2[nH]c(O)c(N=NC(=O)c3cccc(S(=O)(=O)Nc4ccc(Cl)cc4)c3)c2c1`, the cell number change is -59.9%.
Consider `Cc1ccc(OCC(=O)c2ccc(Cl)s2)c([N+](=O)[O-])n1`, for which the cell number change came out at 14%. The AC50 under setting [1] was 0.082 µM [falling, full curve, poor fit]. The AC50 under setting [2] is 0.116 µM [falling, full curve, poor fit].
As for `Cc1nc2ccccc2c(=O)n1/N=C/c1ccccc1F`, the cell number change is 18.5%. For the same compound, under setting [2], the AC50 was 6.51 µM [rising, single point].
Turning to `CCC(NC(=O)c1ccc([N+](=O)[O-])cc1[N+](=O)[O-])c1ccccc1` (configuration not stated), the cell number change was -26.9%. The AC50 under setting [1] is 0.116 µM [falling, full curve].
As for `COc1cccc(C(=O)NNS(=O)(=O)c2ccc(C)cc2)c1`, the cell number change came out at 27.4%. The concentration at half-maximal activity (AC50) under setting [2] is 29.1 µM [rising, single point].
On to `CCc1ccc(-n2c(SCc3c(C)noc3C)nnc2-c2ccncc2)cc1`, for which the AC50 under setting [1] is 0.731 µM [rising, partial curve] and the concentration at half-maximal activity (AC50) under setting [2] is 6.51 µM [rising, partial curve].
With `O=C(CCC(=O)N1CCN(C2CCCCC2)CC1)Nc1nnc(C(F)(F)F)s1`, the cell number change was -48.8%. Besides, the AC50 under setting [1] is 20.6 µM [falling, partial curve]. Under setting [2], the AC50 is 1.16 µM [falling, full curve].
Take `CN1C(=O)c2ccc(C(=O)NC3CCCCC3)cc2C1=O`: the AC50 by setting is: under setting [1], 6.51 µM [rising, single point]; under setting [2], 6.51 µM [rising, single point].
Regarding `O=C(c1ccc(Cl)cc1)N1CCN(CCc2ccccn2)CC1`, the cell number change amounted to 118%. Besides, the AC50 under setting [1] was 9.2 µM [rising, partial curve]. Further, the AC50 under setting [2] was 29.1 µM [rising, partial curve, poor fit].
On to `COc1ccc(NC(=O)c2ccc(-n3cccn3)c([N+](=O)[O-])c2)cc1`, for which the cell number change was -122%. Further, the AC50 under setting [1] is 2.06 µM [falling, partial curve].
Consider `O=C(N/N=C/c1ccc(OC(F)F)cc1)c1cc[n+]([O-])cc1`, for which the cell number change came to 37.1%. For the same compound, the half-maximal activity concentration (AC50) under setting [1] is 25.9 µM [rising, single point].
As for `COC(=O)[C@H](CCSC)NC(=O)NCCc1ccccc1F`, the cell number change was -33.5%. Under setting [1], the AC50 was 29.1 µM [falling, single point].
With `Cc1c(C)c2ccc(OCC(=O)Nc3ccccn3)cc2oc1=O`, the cell number change was 0.708%. Further, under setting [2], the AC50 was 6.51 µM [falling, single point].
Regarding `CC1CCCN(C(=O)CNC(=O)c2cccs2)C1` (configuration not stated), the cell number change turned out to be 4.28%. The concentration at half-maximal activity (AC50) under setting [2] was 0.00461 µM [falling, full curve, poor fit].
On to `O=C(Nc1nc(-c2ccc(Cl)cc2)cs1)C1=COCCO1`, for which, under setting [2], the AC50 is 0.58 µM [falling, full curve, poor fit].
On to `COC(=O)c1ccc(S(=O)(=O)c2ccccc2)c(N)c1`, for which the cell number change turned out to be 71.7%. Under setting [1], the AC50 is 13 µM [rising, partial curve].
On to `CCCCn1c(SCC(=O)N2CCCc3ccccc32)nc2c1c(=O)n(C)c(=O)n2C`, for which the cell number change came to 4.57%.
Take `Cc1ccc(C(=O)NC(=S)Nc2ccc(N3CCOCC3)cc2)cc1`: the cell number change is -20.9%. Moreover, the AC50 under setting [2] was 0.0058 µM [falling, full curve, poor fit].
Consider `O=C(CCN1C(=O)/C(=C/c2ccc(F)cc2)SC1=S)NCCc1cnc[nH]1`, for which the cell number change is -39.7%. The half-maximal activity concentration (AC50) under setting [1] is 29.1 µM [falling, single point]. Besides, the concentration at half-maximal activity (AC50) under setting [2] is 20.6 µM [falling, single point].
Take `Cc1nn(Cc2cccc(F)c2)c(C)c1NC(=O)c1ccc(COc2ccccc2Cl)cc1`: the cell number change is -79.2%. Further, under setting [2], the half-maximal activity concentration (AC50) is 29.1 µM [falling, partial curve].
Turning to `c1ccc(Cn2c3ccccc3c3nnc(SCCN4CCCCC4)nc32)cc1`, the cell number change turned out to be 30.9%. For the same compound, the AC50 under setting [1] is 14.6 µM [rising, partial curve].
Take `COC(=O)c1ccc(NC(=S)NC2CCCCC2)cc1`: the cell number change was -7.36%. The AC50 under setting [1] was 1.46 µM [rising, partial curve]. The AC50 under setting [2] is 1.84 µM [rising, partial curve].
With `CS(=O)(=O)N(CC(=O)N1CCCC1)c1cc(Cl)c(Cl)cc1Cl`, the cell number change is 81%. For the same compound, the concentration at half-maximal activity (AC50) under setting [1] was 8.2 µM [rising, partial curve]. Further, under setting [2], the AC50 is 10.3 µM [rising, partial curve].
Regarding `NC(=O)CC(NC(=O)c1ccc(Br)cc1)c1ccc(NC2CCCCCC2)c([N+](=O)[O-])c1` (configuration not stated), the cell number change was 14.7%. The AC50 under setting [2] was 9.2 µM [falling, partial curve].
On to `Cc1ccc(S(=O)(=O)N(C)C)cc1NC(=O)COC(=O)CCNS(=O)(=O)c1ccccc1`, for which the cell number change was -2.88%. For the same compound, under setting [2], the AC50 was 10.3 µM [rising, partial curve].
Consider `CCN1C(=O)C2(C(C#N)=C(N)Oc3n[nH]c(-c4ccc(Cl)cc4)c32)c2ccccc21` (configuration not stated), for which the cell number change came to 42.7%. Further, under setting [1], the AC50 was 0.731 µM [rising, full curve]. The concentration at half-maximal activity (AC50) under setting [2] was 6.51 µM [rising, partial curve].
Consider `COc1ccc(C2=NN(C(=O)CSc3nc(=O)n4cccc(C)c4n3)C(c3ccc(C)cc3)C2)cc1` (configuration not stated), for which the cell number change came to 6.7%. For the same compound, under setting [1], the AC50 is 2.31 µM [rising, partial curve]. Moreover, the AC50 under setting [2] is 2.59 µM [rising, partial curve].
In the case of `O=C(COC(=O)CNS(=O)(=O)c1ccccc1)Nc1ncc(Cl)cc1Cl`, the cell number change was found to be 0.251%. In addition, under setting [2], the AC50 is 1.64 µM [rising, full curve, poor fit].
Take `N#Cc1ccc(-c2ccc(F)cc2)nc1Oc1ccccc1`: the cell number change was 56.8%. Also, under setting [1], the AC50 is 18.4 µM [rising, single point].
As for `Cn1c(Cn2c(=O)sc3ccccc32)nnc1SCc1cccnc1`, the cell number change came to 13.4%. For the same compound, the concentration at half-maximal activity (AC50) under setting [2] was 0.517 µM [falling, single point].
In the case of `COC(=O)c1c(NC(=O)COC(=O)[C@@H](NS(=O)(=O)c2cccc(Cl)c2)C(C)C)sc2c1CCC2`, the cell number change stood at 2.82%.
With `Cc1nnsc1C(=O)N/N=C/c1ccc(OC(F)(F)F)cc1`, the cell number change stood at 20.2%. The half-maximal activity concentration (AC50) under setting [1] was 3.26 µM [falling, partial curve]. Moreover, the half-maximal activity concentration (AC50) under setting [2] is 4.61 µM [falling, partial curve, poor fit].
For `COc1ccc2nc(C)cc(SCC(=O)N/N=C/c3c(OC)ccc4ccccc34)c2c1`, the cell number change is -7.95%. Moreover, the AC50 under setting [1] is 6.51 µM [falling, single point].
For the compound `O=C1c2ccccc2C(=O)N1CC(O)Cn1nnc2ccccc21` (configuration not stated), the cell number change is 41.7%. In addition, the AC50 under setting [1] was 9.2 µM [rising, partial curve, poor fit]. Further, under setting [2], the half-maximal activity concentration (AC50) is 14.6 µM [rising, partial curve].
For `Cc1cccc(-n2nnc3cnn(C)c3c2=O)c1`, the cell number change stood at 56.2%. The half-maximal activity concentration (AC50) under setting [1] was 16.4 µM [rising, single point]. Besides, the concentration at half-maximal activity (AC50) under setting [2] was 6.51 µM [rising, single point].
Take `Cc1cccc(COc2ccc(/C=N/NC(=O)c3nnn(-c4nonc4N)c3COc3ccc(F)cc3)cc2)c1`: the cell number change amounted to 13.2%. The half-maximal activity concentration (AC50) under setting [2] was 0.103 µM [rising, full curve, poor fit].
Turning to `CCOc1ccc(NC(=O)CN(C)C(=O)Cc2ccsc2)cc1OCC`, the cell number change stood at 0.273%. Besides, under setting [2], the AC50 was 6.51 µM [rising, single point].
